Reference: US12435091B2, “RNA-binding protein multimerization inhibitors and methods of use thereof” (THE UAB RESEARCH FOUNDATION, priority 2020, dated 2025)
At least one structure is not confirmed: it was looked up by name or label, or the drawing left a doubt.

Test system: U251 glioma cell line
Assay: PrestoBlue cell viability assay
Type: cell-based
Details: U251 with dox-inducible Fluc reporter
Protocol: PrestoBlue cell viability reagent (ThermoFisher Scientific; Waltham, MA) was used for cell viability assays. The inhibitory dose-response data were normalized to the control (treatment with vehicle); the inhibitory dose-response curves, which were fitted by using Boltzmann equation, and the corresponding IC50s were generated by using OriginPro software (OriginLab Corporation, CA).
The glioma suppressive potentials of the new class of HuR multimerization inhibitors were evaluated by utilizing SRI-41664 and SRI-42127 compounds in several cell-based assays. First, it was confirmed that the SRI-41664 and SRI-42127 compounds are cytotoxic for established and PDGx cell lines. FIG. 5A illustrates the inhibitory dose responses of SRI-41664 and SRI-42127 compounds in the established U251, LN229, and the PDGx XD456 glioma cell lines. […] An HuR-overexpression approach was employed to confirm SRI-42127 inhibitory potency against HuR dimerization.

CN(c1ccc2ncc(-c3ccc4cn[nH]c4c3)n2n1)C1CCOCC1 [Compound 19]
effect of two-fold overexpression of control reporter Fluc construct on IC50s: did not significantly alter
